Patent US10857167B2, “Use of oligosaccharide compositions to enhance weight gain” (Children's Hospital Medical Center, priority 2015, dated 2020)
The source gives many values for each of these; only a part stands here.

System: distal small bowel gene expression
Experiment: RNA sequencing / transcriptional analysis of small bowel 56 days after ICR (2′-FL signature response)
Type: in vivo, mouse
Source text: Luminal small bowel contents were expressed into AllProtect Tissue Reagent (Qiagen Inc, CA). Bacterial DNA was extracted using the AllPrep DNA/RNA Mini Kit (Qiagen Inc, CA), according to kit instructions and prior to sequencing (described below). Small bowel tissue samples for RNA were placed into RNA Later (Life Technologies, NY). RNA extraction was accomplished following Qiagen RNeasy Plus Kit instruction (Qiagen Inc, CA). All nucleic acid samples were then stored at -80 Celsius until sequenced (described below). Transcriptional analysis was carried out on resected and harvested small bowel samples obtained from operated mice taken to 8 weeks. Murine RNA sequencing libraries were prepared from approximately 1.5 μg RNA using the TruSeq RNA Sample Preparation Kit (Illumina, Calif.) and sequenced using the HiSeq 2000 Sequencing System (Illumina, Calif.) with single-end 50 bp reads. Following removal of primers and barcodes, sequences were aligned to the mm10 genome using reference annotations from UCSC (Rosenbloom et al. (2015) Nucleic acids research 43: […]-681) (n=36,186 entities). Aligned reads were quantified and used to compute reads per kilobase per million mapped reads (RPKM); raw counts were then normalized using the DESeq algorithm and each harvested sample was baselined to its own resected sample. A filter was applied to the data, requiring at least three reads in all samples of at least one of the four experimental conditions (n=14,489 entities). The data discussed in this publication have been deposited in NCBI's Gene Expression Omnibus and are accessible through NCBI Gene Expression Omnibus (GEO) Series accession number GSE72590. Edgar et al. (2002) Nucleic acids research 30: 207-210. In order to characterize the impact of 2'-FL supplementation while accounting for the effect of ileoecal resection, a t-test was applied between resected and harvested samples within control and experimental animals. Significance was set at a p-value of ≤0.05 and a fold change of 3, which generated 2,576 differentially regulated entities across two comparisons. Gene set unions and intersections of the control and experimental gene sets were identified through Venn diagrams. From the master list, the gene list specific to animals supplemented with 2'-FL were removed in order to identify genes differentially regulated only by ICR (n=546 entities); this gene set characterizes the adaptive response. Further, the 2'-FL response (n=2,030 entities) was identified by removing the adaptive response signature described above from the master list, leaving only genes regulated by 2'-FL supplementation after ICR which were not found in the non-supplemented adaptive response. Heatmaps were generated using hierarchical clustering with the Pearson's Centered distance metric and the average linkage rule; both entities and samples were clustered. All genomic analyses described above were performed in Strand NGS (Strand Life Sciences, CA). Gene list functional enrichment was initially discovered using ToppFun, a member of the ToppGene Suite. Chen et al. (2009) Nucleic acids research 37: […]-311. No statistical correction was selected. Gene lists were further analyzed using ClueGO, a plugin for Cytoscape designed to decipher functionally grouped gene ontology and pathway annotation networks. Bindea et al. (2009) Bioinformatics 25: 1091-1093. At the time of data analysis, the annotation files were updated from sources to Jan. 1, 2015. “GO Term Fusion” was enabled to manage ontologic term redundancy and network specificity was set to medium. Results were restricted to pathways with p≤0.05 using Benjamini-Hochberg correction and Kappa scoring was set to 0.4. Biocyc annotations were assigned a rectangle, gene ontology biologic processes were assigned an ellipse, and […] annotations were assigned a diamond shape. No meaning was assigned to size or color. […]

## C[C@@H]1O[C@@H](O[C@H]2[C@H](O[C@H]3[C@H](O)[C@@H](O)C(O)O[C@@H]3CO)O[C@H](CO)[C@H](O)[C@@H]2O)[C@@H](O)[C@H](O)[C@@H]1O (stereo partly shown) [2′-FL, 2′-fucosyllactose]
Gene Lmln
  Fold Change (Pre- to Post-op): −5.849
Gene Lpcat1
  Fold Change (Pre- to Post-op): −3.49
Gene Lphn1
  Fold Change (Pre- to Post-op): −5.839
Gene Lpin1
  Fold Change (Pre- to Post-op): −9.312
Gene Lpl
  Fold Change (Pre- to Post-op): −6.21
Gene Lrig3
  Fold Change (Pre- to Post-op): −3.766
Gene Lrp3
  Fold Change (Pre- to Post-op): −4.783
Gene Lrp4
  Fold Change (Pre- to Post-op): −3.166
Gene Lrp5
  Fold Change (Pre- to Post-op): −4.491
Gene Lrp8
  Fold Change (Pre- to Post-op): −3.215
Gene Lrrc32
  Fold Change (Pre- to Post-op): −5.787
Gene Lrrc47
  Fold Change (Pre- to Post-op): −4.268
Gene Ltbp3
  Fold Change (Pre- to Post-op): −5.229
Gene Ltbp4
  Fold Change (Pre- to Post-op): −7.119
Gene Ltk
  Fold Change (Pre- to Post-op): −3.671
Gene Ly9
  Fold Change (Pre- to Post-op): −4.129
Gene Ly75
  Fold Change (Pre- to Post-op): −3.155
Gene Mab21l2
  Fold Change (Pre- to Post-op): −3.674
Gene Macc1
  Fold Change (Pre- to Post-op): −3.441
Gene Madd
  Fold Change (Pre- to Post-op): −3.432
Gene Magee1
  Fold Change (Pre- to Post-op): −6.389
Gene Malat1
  Fold Change (Pre- to Post-op): −5.742
Gene Maml1
  Fold Change (Pre- to Post-op): −3.799
Gene Maml2
  Fold Change (Pre- to Post-op): −3.955
Gene Maml3
  Fold Change (Pre- to Post-op): −4.76
Gene Mamld1
  Fold Change (Pre- to Post-op): −4.477
Gene Man1c1
  Fold Change (Pre- to Post-op): −7.486
Gene Man2a2
  Fold Change (Pre- to Post-op): −4.11
Gene Man2b1
  Fold Change (Pre- to Post-op): −3.221
Gene Map1a
  Fold Change (Pre- to Post-op): −3.571
Gene Map1s
  Fold Change (Pre- to Post-op): −3.641
Gene Map3k9
  Fold Change (Pre- to Post-op): −4.047
Gene Map4
  Fold Change (Pre- to Post-op): −3.068
Gene Map4k2
  Fold Change (Pre- to Post-op): −3.524
Gene Mapk4
  Fold Change (Pre- to Post-op): −4.411
Gene Mapk7
  Fold Change (Pre- to Post-op): −4.177
Gene Mapre2
  Fold Change (Pre- to Post-op): −3.082
Gene Mark1
  Fold Change (Pre- to Post-op): −3.566
Gene Mark4
  Fold Change (Pre- to Post-op): −6.451
Gene Mast2
  Fold Change (Pre- to Post-op): −3.485
Gene Mast4
  Fold Change (Pre- to Post-op): −3.888
Gene Mbd6
  Fold Change (Pre- to Post-op): −5.762
Gene Mbp
  Fold Change (Pre- to Post-op): −3.221
Gene Mcf2l
  Fold Change (Pre- to Post-op): −3.174
Gene Med12
  Fold Change (Pre- to Post-op): −6.66
Gene Med13l
  Fold Change (Pre- to Post-op): −4.75
Gene Med28
  Fold Change (Pre- to Post-op): 3.032
Gene Mef2d
  Fold Change (Pre- to Post-op): −4.046
Gene Megf6
  Fold Change (Pre- to Post-op): −4.097
Gene Megf8
  Fold Change (Pre- to Post-op): −4.517
Gene Megf9
  Fold Change (Pre- to Post-op): −3.69
Gene Mep1a
  Fold Change (Pre- to Post-op): −5.171
Gene Mfhas1
  Fold Change (Pre- to Post-op): −6.536
Gene Mfsd6
  Fold Change (Pre- to Post-op): −3.117
Gene Mgat5
  Fold Change (Pre- to Post-op): −5.622
Gene Mical2
  Fold Change (Pre- to Post-op): −4.656
Gene Mid1
  Fold Change (Pre- to Post-op): −3.048
Gene Midn
  Fold Change (Pre- to Post-op): −4.128
Gene Mink1
  Fold Change (Pre- to Post-op): −3.214
Gene Mira
  Fold Change (Pre- to Post-op): −5.084
Gene Mllt6
  Fold Change (Pre- to Post-op): −4.66
Gene Mlph
  Fold Change (Pre- to Post-op): −3.283
Gene Mlxip
  Fold Change (Pre- to Post-op): −3.3
Gene Mmp2
  Fold Change (Pre- to Post-op): −3.938
Gene Mmp14
  Fold Change (Pre- to Post-op): −3.777
Gene Mmrn2
  Fold Change (Pre- to Post-op): −7.756
Gene Mn1
  Fold Change (Pre- to Post-op): −5.932
Gene Mnt
  Fold Change (Pre- to Post-op): −4.621
Gene Mpdz
  Fold Change (Pre- to Post-op): −6.001
Gene Mpp2
  Fold Change (Pre- to Post-op): −5.693
Gene Mrap
  Fold Change (Pre- to Post-op): −3.915
Gene Mrvi1
  Fold Change (Pre- to Post-op): −3.235
Gene Msi1
  Fold Change (Pre- to Post-op): −5.962
Gene Msn
  Fold Change (Pre- to Post-op): −3.809
Gene Mtss1l
  Fold Change (Pre- to Post-op): −6.11
Gene Mvb12b
  Fold Change (Pre- to Post-op): −3.459
Gene Mxra8
  Fold Change (Pre- to Post-op): −3.347
Gene Myadm
  Fold Change (Pre- to Post-op): −3.606
Gene Myh9
  Fold Change (Pre- to Post-op): −5.591
Gene Myh11
  Fold Change (Pre- to Post-op): −5.837
Gene Myh14
  Fold Change (Pre- to Post-op): −4.91
Gene Myo1b
  Fold Change (Pre- to Post-op): −3.028
Gene Myo1e
  Fold Change (Pre- to Post-op): −3.792
Gene Myo1f
  Fold Change (Pre- to Post-op): −4.046
Gene Myo5a
  Fold Change (Pre- to Post-op): −3.124
Gene Myo7b
  Fold Change (Pre- to Post-op): −4.215
Gene Myo18a
  Fold Change (Pre- to Post-op): −3.82
Gene Myo1d
  Fold Change (Pre- to Post-op): −4.145
Gene Myof
  Fold Change (Pre- to Post-op): −3.686
Gene Mypop
  Fold Change (Pre- to Post-op): −4.666
Gene Myrf
  Fold Change (Pre- to Post-op): −3.19
Gene N4bp2
  Fold Change (Pre- to Post-op): −4.664
Gene Nat8l
  Fold Change (Pre- to Post-op): −5.813
Gene Nav1
  Fold Change (Pre- to Post-op): −4.981
Gene Nbea
  Fold Change (Pre- to Post-op): −3.203
Gene Nbr1
  Fold Change (Pre- to Post-op): −3.474
Gene Ncapd2
  Fold Change (Pre- to Post-op): −4.59
Gene Ncdn
  Fold Change (Pre- to Post-op): −6.446
Gene Nckap1l
  Fold Change (Pre- to Post-op): −3.892
Gene Ncl
  Fold Change (Pre- to Post-op): −3.283
Gene Ncoa1
  Fold Change (Pre- to Post-op): −3.068
Gene Ncoa6
  Fold Change (Pre- to Post-op): −3.207
Gene Ncor2
  Fold Change (Pre- to Post-op): −6.482
Gene Nedd4
  Fold Change (Pre- to Post-op): −4.292
Gene Nefm
  Fold Change (Pre- to Post-op): −4.086
Gene Negr1
  Fold Change (Pre- to Post-op): −5.117
Gene Nell1
  Fold Change (Pre- to Post-op): −5.436
Gene Nell2
  Fold Change (Pre- to Post-op): −4.751
Gene Neurl1a
  Fold Change (Pre- to Post-op): −3.646
Gene Nfat5
  Fold Change (Pre- to Post-op): −3.212
Gene Nfatc1
  Fold Change (Pre- to Post-op): −3.71
Gene Nfatc2
  Fold Change (Pre- to Post-op): −5.433
Gene Nfatc4
  Fold Change (Pre- to Post-op): −3.134
Gene Nfic
  Fold Change (Pre- to Post-op): −6.107
Gene Nhsl2
  Fold Change (Pre- to Post-op): −8.108
Gene Nid1
  Fold Change (Pre- to Post-op): −3.504
Gene Nid2
  Fold Change (Pre- to Post-op): −4.055
Gene Nol6
  Fold Change (Pre- to Post-op): −4.067
Gene Nos1
  Fold Change (Pre- to Post-op): −3.203
Gene Nos3
  Fold Change (Pre- to Post-op): −5.219
Gene Notch3
  Fold Change (Pre- to Post-op): −7.086
